Experimental data published in paper PMC4674770.
No constants are given. Whether binding was seen depends on the method and setting. Binding seen in cells or lysates may run through a third protein. Some binding calls cover weakened binding; strength is not graded here.

Amino acid sequences for entries named in this document (tags omitted). Residues count along the entry.
UniProt P12023, residues 18-770: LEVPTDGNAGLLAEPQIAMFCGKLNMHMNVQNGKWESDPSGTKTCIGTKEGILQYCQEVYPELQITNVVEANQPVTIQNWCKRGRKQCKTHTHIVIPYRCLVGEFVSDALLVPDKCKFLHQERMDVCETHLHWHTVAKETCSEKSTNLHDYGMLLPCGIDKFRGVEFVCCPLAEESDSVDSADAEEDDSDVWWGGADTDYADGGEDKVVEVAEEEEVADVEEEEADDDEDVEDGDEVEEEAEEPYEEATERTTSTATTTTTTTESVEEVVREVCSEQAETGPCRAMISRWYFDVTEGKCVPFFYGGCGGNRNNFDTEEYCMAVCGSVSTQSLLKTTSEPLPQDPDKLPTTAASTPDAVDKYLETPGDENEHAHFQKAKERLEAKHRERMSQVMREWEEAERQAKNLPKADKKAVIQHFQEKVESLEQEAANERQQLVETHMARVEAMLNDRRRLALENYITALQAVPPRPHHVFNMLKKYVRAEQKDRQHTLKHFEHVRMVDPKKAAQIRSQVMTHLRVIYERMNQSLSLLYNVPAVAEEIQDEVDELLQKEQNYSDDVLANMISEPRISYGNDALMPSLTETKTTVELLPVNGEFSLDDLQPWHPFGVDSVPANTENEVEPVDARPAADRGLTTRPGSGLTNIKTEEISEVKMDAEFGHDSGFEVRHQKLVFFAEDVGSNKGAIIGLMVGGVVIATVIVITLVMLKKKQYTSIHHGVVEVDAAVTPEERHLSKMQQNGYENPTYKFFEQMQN

Biological target: T1, NCAM2 at the cell surface of cultured mouse hippocampal neurons (mouse (endogenous in cultured hippocampal neurons)) (UniProt O35136)
T1 sequence: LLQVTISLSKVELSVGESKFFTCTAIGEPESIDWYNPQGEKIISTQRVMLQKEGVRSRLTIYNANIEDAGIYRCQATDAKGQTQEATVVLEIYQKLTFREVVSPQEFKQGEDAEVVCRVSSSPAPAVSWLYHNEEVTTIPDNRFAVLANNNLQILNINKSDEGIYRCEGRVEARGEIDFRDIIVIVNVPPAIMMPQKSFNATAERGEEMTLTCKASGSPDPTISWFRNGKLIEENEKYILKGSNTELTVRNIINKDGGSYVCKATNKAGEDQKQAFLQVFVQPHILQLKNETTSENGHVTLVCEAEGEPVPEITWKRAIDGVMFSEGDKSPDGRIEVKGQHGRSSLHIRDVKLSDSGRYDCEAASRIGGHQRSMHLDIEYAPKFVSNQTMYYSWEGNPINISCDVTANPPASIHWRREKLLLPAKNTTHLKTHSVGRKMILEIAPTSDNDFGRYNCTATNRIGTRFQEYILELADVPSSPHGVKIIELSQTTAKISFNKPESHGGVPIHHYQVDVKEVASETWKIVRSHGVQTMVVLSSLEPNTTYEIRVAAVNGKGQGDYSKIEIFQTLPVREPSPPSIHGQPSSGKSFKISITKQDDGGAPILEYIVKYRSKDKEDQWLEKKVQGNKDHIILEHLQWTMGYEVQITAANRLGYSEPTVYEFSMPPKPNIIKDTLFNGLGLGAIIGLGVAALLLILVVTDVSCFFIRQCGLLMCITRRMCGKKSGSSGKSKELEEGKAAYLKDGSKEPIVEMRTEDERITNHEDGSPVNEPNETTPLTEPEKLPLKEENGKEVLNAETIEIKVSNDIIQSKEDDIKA
Assay: proximity ligation; mock-treated cultured mouse hippocampal neurons, fixed, not permeabilized; antibodies against Aβ1-42 (sc-28365) and the extracellular domain of NCAM2

binding: binds weakly
Substance: endogenous APP in cultured mouse hippocampal neurons (from UniProt P12023 18-770)
